Data: PubChem BioAssay AID330 (DTP/NCI, 2004)
The list is a part of this screen's results and no random one: it is rich in T/C values a quarter to a half above the control, in often repeated tests (any T/C) and in doses without a T/C. Other doses and runs of a compound stand elsewhere. T/C gives the treated animals as a percentage of the vehicle group. Some entries give survivors of the animals treated and no T/C: the source files T/C as zero there, which appears to mark a toxic dose or a test without result, not a measured value. Some doses without a T/C left all or most animals alive at the check, yet need not have been tolerated: the source hardly ever lists a survival T/C far under the control, and the zero likely stands for such cases as well. Counts of survivors are from the toxicity check (mostly the fifth day) where no day follows; animals may have died later. Schedules are NCI's codes, taken here to give the interval after Q, in days (D) or hours (H), and the number of doses after X. Signs of the kind (2×) say how often a value occurs here. Some doses were run more than once; the values are given in rising order. Where survival is the endpoint, this PubChem deposit counts one and a half times the control or more as active, and values a quarter to a half above the control carry no call in these data; other NCI protocols may use other cut-offs. Some T/C values are followed by the survivors on the day toxicity was checked, most often the fifth; without a count, all were alive then.

System: P388 leukemia ip, CD2F1 mice, survival T/C
Test: NCI In Vivo Anticancer Drug Screen. Data for tumor model P388 Leukemia (intraperitoneal) in CD2F1 (CDF1) mice
Conditions: T/C endpoint: median survival time, higher T/C = longer survival
[1] = dose: 200.0 mg/kg/injection, schedule: Q01DX009 (ip), vehicle: saline
[2] = dose: 60.0 mg/kg/injection, schedule: Q01DX005 (ip), vehicle: Klucel (hydroxypropylcellulose) (HPC)
[3] = dose: 240.0 mg/kg/injection, schedule: Q01DX005 (ip), vehicle: Klucel (hydroxypropylcellulose) (HPC)
[4] = dose: 12.5 mg/kg/injection, schedule: Q01DX009 (ip), vehicle: water
[5] = dose: 50.0 mg/kg/injection, schedule: Q01DX009 (ip), vehicle: water
[6] = dose: 50.0 mg/kg/injection, schedule: Q01DX009 (ip), vehicle: saline with Tween-80
[7] = dose: 120.0 mg/kg/injection, schedule: Q01DX005 (ip), vehicle: Klucel (hydroxypropylcellulose) (HPC)
[8] = dose: 200.0 mg/kg/injection, schedule: Q01DX005 (ip), vehicle: saline with Tween-80
[9] = dose: 50.0 mg/kg/injection, schedule: Q01DX005 (ip), vehicle: saline with Tween-80
[10] = dose: 100.0 mg/kg/injection, schedule: Q01DX005 (ip), vehicle: saline with Tween-80
[11] = dose: 100.0 mg/kg/injection, schedule: Q04DX003 (ip), vehicle: saline
[12] = dose: 100.0 mg/kg/injection, schedule: Q01DX005 (ip), vehicle: saline

C[n+]1ccn(Cc2ccc([N+](=O)[O-])cc2)c1
survivor count [1]: 6 of 6

COc1ccc(NC(=O)Oc2ccc(C#N)cc2)cc1
T/C [2]: 127 % of control | survivor count [3]: 5 of 6

C=C(C)[Se]c1ccccc1
survivor count (dose: 200.0 mg/kg/injection, schedule: Q01DX009 (ip), vehicle: saline with Tween-80): 1 of 6 and 2 of 6

O=NNc1ccc2ccccc2n1
T/C (dose: 3.12 mg/kg/injection, schedule: Q01DX009 (ip), vehicle: water): 126 % of control | T/C (dose: 6.25 mg/kg/injection, schedule: Q01DX009 (ip), vehicle: water): 128 and 129 % of control | T/C [4]: 128 and 134 % of control | survivor count [5]: 4 of 6 and 6 of 6

CCOC(=O)c1ccc(NC(=O)Nc2ncccc2C)cc1
survivor count (dose: 3.12 mg/kg/injection, schedule: Q01DX009 (ip), vehicle: saline with Tween-80): 6 of 6 | survivor count (dose: 12.5 mg/kg/injection, schedule: Q01DX009 (ip), vehicle: saline with Tween-80): 6 of 6 | survivor count [6]: 6 of 6 | survivor count (dose: 100.0 mg/kg/injection, schedule: Q01DX009 (ip), vehicle: saline with Tween-80): 6 of 6

CC(N1CCOCC1)C(O)(c1ccccc1)c1ccccn1 (configuration not stated)
survivor count (dose: 200.0 mg/kg/injection, schedule: Q01DX005 (ip), vehicle: saline + alcohol): 0 of 6

COc1cccc2c1C(=O)c1c(O)c3c(c(O)c1C2=O)CC(O)(C(=O)C(C)C)CC3OC1CC(N)C(O)C(C)O1 (configuration not stated)
survivor count [4]: 3 of 3 | survivor count (dose: 25.0 mg/kg/injection, schedule: Q01DX009 (ip), vehicle: water): 0 of 3 | T/C (dose: 37.5 mg/kg/injection, schedule: Q04DX003 (ip), vehicle: water): 128 % of control | survivor count [5]: 0 of 3 | survivor count (dose: 150.0 mg/kg/injection, schedule: Q04DX003 (ip), vehicle: water): 0 of 3

Cc1ccc(C)n1-c1ccsc1C(=O)NNC(=O)C(Cl)(Cl)Cl
survivor count [2]: 0 of 6 | survivor count [7]: 0 of 6 | survivor count [3]: 0 of 6

O=C1C2=C(Nc3cc([N+](=O)[O-])ccc3N2)OC1c1ccc2c(c1)OCO2 (configuration not stated)
survivor count (dose: 15.0 mg/kg/injection, schedule: Q01DX005 (ip), vehicle: Klucel (hydroxypropylcellulose) (HPC)): 6 of 6 | survivor count (dose: 30.0 mg/kg/injection, schedule: Q01DX005 (ip), vehicle: Klucel (hydroxypropylcellulose) (HPC)): 6 of 6 (2×) | T/C (dose: 60.0 mg/kg/injection, schedule: Q01DX005 (ip), vehicle: Klucel (hydroxypropylcellulose) (HPC), evaluated on day 20): 89 % of control | T/C (dose: 60.0 mg/kg/injection, schedule: Q01DX005 (ip), vehicle: Klucel (hydroxypropylcellulose) (HPC), evaluated on day 30): 87 % of control | survivor count [2]: 6 of 6 | survivor count [7]: 6 of 6

CC1(C)S[C@@H]2C(Cl)=C(Cl)C(=O)N2[C@H]1C(=O)O
survivor count [8]: 1 of 6

Cn1c(COc2ccc(/C=N\N/C(N)=N/N=C/c3ccc(OCc4c[n+]5ccccc5n4C)cc3)cc2)c[n+]2ccccc12
survivor count [9]: 0 of 6 and 1 of 6 | survivor count [10]: 0 of 6 | survivor count [8]: 0 of 6

CC(C)=NOCc1ccccc1
survivor count (dose: 25.0 mg/kg/injection, schedule: Q01DX009 (ip), vehicle: Klucel (hydroxypropylcellulose) (HPC)): 6 of 6

CCCOc1cc2c(cc1C(C)c1ccc(OC)cc1)OCO2 (configuration not stated)
T/C (dose: 50.0 mg/kg/injection, schedule: Q01DX005 (ip), vehicle: distilled water + alcohol): 92 [4 of 5 alive], 97, 100, 104 % of control | T/C (dose: 100.0 mg/kg/injection, schedule: Q01DX005 (ip), vehicle: distilled water + alcohol): 100, 101, 104, 106 % of control | T/C (dose: 200.0 mg/kg/injection, schedule: Q01DX005 (ip), vehicle: distilled water + alcohol): 104, 109, 111, 121 % of control | T/C (dose: 400.0 mg/kg/injection, schedule: Q01DX005 (ip), vehicle: distilled water + alcohol): 130 % of control

COC(=O)/N=C1\C(=O)C=CC(O)=C1C(N)=O
survivor count [9]: 0 of 6 | survivor count [10]: 0 of 6 | survivor count [8]: 0 of 6

CC(=O)NCCc1nc(-c2nc(C(=O)NCCCCN)cs2)cs1
T/C (dose: 200.0 mg/kg/injection, schedule: Q01DX009 (ip), vehicle: water): 137 % of control

Cc1ccc(N2C(=O)N(c3ccc(C)cc3)C3(Sc4ccccc4N3C)C2=O)cc1 (configuration not stated)
survivor count (dose: 200.0 mg/kg/injection, schedule: Q04DX002 (ip), vehicle: saline with Tween-80): 6 of 6 | survivor count (dose: 400.0 mg/kg/injection, schedule: Q04DX002 (ip), vehicle: saline with Tween-80): 6 of 6

Cc1cc(N=[N+]=[N-])c2ccccc2n1
survivor count (dose: 240.0 mg/kg/injection, schedule: Q01DX005 (ip), vehicle: saline with Tween-80): 0 of 6

C1=CCC(CC[Si]23OCCN(CCO2)CCO3)CC1 (configuration not stated)
survivor count (dose: 100.0 mg/kg/injection, schedule: Q01DX005 (ip), vehicle: Klucel (hydroxypropylcellulose) (HPC)): 5 of 6 | survivor count (dose: 200.0 mg/kg/injection, schedule: Q01DX005 (ip), vehicle: Klucel (hydroxypropylcellulose) (HPC)): 4 of 6

O=C(CC(=O)N1CCN(c2ccccn2)CC1)N1CCN(c2ccccn2)CC1
survivor count [1]: 0 of 6

COc1ccc(OC(=O)/C=C/c2ccccc2)cc1
survivor count (dose: 42.5 mg/kg/injection, schedule: Q04DX002 (ip), vehicle: saline with Tween-80): 3 of 6 | survivor count (dose: 170.0 mg/kg/injection, schedule: Q04DX002 (ip), vehicle: saline with Tween-80): 6 of 6

CP1(=O)CC(=O)CCCCC(=O)C1
survivor count [6]: 6 of 6

NC(N)=O.NC(N)=O.NC(N)=O.NC(N)=O.NC(N)=O.NC(N)=O.[Cr]
survivor count (dose: 50.0 mg/kg/injection, schedule: Q04DX003 (ip), vehicle: saline): 3 of 6 | survivor count [11]: 0 of 6 | survivor count (dose: 200.0 mg/kg/injection, schedule: Q04DX003 (ip), vehicle: saline): 0 of 6 | survivor count (dose: 400.0 mg/kg/injection, schedule: Q04DX003 (ip), vehicle: saline): 0 of 6

NNC(=O)CC(N)=O
survivor count [11]: 6 of 6

Cc1cc[c]([Sb]2[O]C(CO)C(C(O)C(O)C(=O)O)[O]2)cc1 (configuration not stated)
T/C (dose: 50.0 mg/kg/injection, schedule: Q01DX005 (ip), vehicle: saline): 103 [4 of 5 alive], 105, 109, 117 % of control | T/C [12]: 108 [4 of 6 alive] and 125 % of control | survivor count [12]: 1 of 6 and 3 of 5 | survivor count (dose: 200.0 mg/kg/injection, schedule: Q01DX005 (ip), vehicle: saline): 0 of 5 and 0 of 6

OC(CNC1CCCCC1)CO/N=C1\CCSc2c(Cl)cccc21 (configuration not stated)
survivor count (dose: 50.0 mg/kg/injection, schedule: Q04DX002 (ip), vehicle: Klucel (hydroxypropylcellulose) (HPC)): 2 of 6 | survivor count (dose: 100.0 mg/kg/injection, schedule: Q04DX002 (ip), vehicle: Klucel (hydroxypropylcellulose) (HPC)): 0 of 6 | survivor count (dose: 200.0 mg/kg/injection, schedule: Q04DX002 (ip), vehicle: Klucel (hydroxypropylcellulose) (HPC)): 0 of 6 | survivor count (dose: 400.0 mg/kg/injection, schedule: Q04DX002 (ip), vehicle: Klucel (hydroxypropylcellulose) (HPC)): 0 of 6

[NH-]C(CO)C(=O)O.[NH-]C(CO)C(=O)O.[Pd+2] (configuration not stated)
T/C (dose: 100.0 mg/kg/injection, schedule: Q01DX009 (ip), vehicle: water): 126 % of control [5 of 6 alive] | survivor count (dose: 200.0 mg/kg/injection, schedule: Q04DX003 (ip), vehicle: water): 1 of 6

Nc1nccc2[nH]ccc12
survivor count (dose: 100.0 mg/kg/injection, schedule: Q01DX001 (ip), vehicle: saline with Tween-80): 3 of 6 | survivor count (dose: 200.0 mg/kg/injection, schedule: Q01DX001 (ip), vehicle: saline with Tween-80): 0 of 6 | survivor count (dose: 400.0 mg/kg/injection, schedule: Q01DX001 (ip), vehicle: saline with Tween-80): 0 of 6
